According to publication PMC10353805:
These are yes or no findings as the source states them, for the method shown. In cells and extracts the contact can be indirect. Some binding calls cover weakened binding; strength is not graded here. Sequences can lack the tags named with a protein.

Amino acid sequences for entries named in this document (tags omitted).
UniProt Q92793: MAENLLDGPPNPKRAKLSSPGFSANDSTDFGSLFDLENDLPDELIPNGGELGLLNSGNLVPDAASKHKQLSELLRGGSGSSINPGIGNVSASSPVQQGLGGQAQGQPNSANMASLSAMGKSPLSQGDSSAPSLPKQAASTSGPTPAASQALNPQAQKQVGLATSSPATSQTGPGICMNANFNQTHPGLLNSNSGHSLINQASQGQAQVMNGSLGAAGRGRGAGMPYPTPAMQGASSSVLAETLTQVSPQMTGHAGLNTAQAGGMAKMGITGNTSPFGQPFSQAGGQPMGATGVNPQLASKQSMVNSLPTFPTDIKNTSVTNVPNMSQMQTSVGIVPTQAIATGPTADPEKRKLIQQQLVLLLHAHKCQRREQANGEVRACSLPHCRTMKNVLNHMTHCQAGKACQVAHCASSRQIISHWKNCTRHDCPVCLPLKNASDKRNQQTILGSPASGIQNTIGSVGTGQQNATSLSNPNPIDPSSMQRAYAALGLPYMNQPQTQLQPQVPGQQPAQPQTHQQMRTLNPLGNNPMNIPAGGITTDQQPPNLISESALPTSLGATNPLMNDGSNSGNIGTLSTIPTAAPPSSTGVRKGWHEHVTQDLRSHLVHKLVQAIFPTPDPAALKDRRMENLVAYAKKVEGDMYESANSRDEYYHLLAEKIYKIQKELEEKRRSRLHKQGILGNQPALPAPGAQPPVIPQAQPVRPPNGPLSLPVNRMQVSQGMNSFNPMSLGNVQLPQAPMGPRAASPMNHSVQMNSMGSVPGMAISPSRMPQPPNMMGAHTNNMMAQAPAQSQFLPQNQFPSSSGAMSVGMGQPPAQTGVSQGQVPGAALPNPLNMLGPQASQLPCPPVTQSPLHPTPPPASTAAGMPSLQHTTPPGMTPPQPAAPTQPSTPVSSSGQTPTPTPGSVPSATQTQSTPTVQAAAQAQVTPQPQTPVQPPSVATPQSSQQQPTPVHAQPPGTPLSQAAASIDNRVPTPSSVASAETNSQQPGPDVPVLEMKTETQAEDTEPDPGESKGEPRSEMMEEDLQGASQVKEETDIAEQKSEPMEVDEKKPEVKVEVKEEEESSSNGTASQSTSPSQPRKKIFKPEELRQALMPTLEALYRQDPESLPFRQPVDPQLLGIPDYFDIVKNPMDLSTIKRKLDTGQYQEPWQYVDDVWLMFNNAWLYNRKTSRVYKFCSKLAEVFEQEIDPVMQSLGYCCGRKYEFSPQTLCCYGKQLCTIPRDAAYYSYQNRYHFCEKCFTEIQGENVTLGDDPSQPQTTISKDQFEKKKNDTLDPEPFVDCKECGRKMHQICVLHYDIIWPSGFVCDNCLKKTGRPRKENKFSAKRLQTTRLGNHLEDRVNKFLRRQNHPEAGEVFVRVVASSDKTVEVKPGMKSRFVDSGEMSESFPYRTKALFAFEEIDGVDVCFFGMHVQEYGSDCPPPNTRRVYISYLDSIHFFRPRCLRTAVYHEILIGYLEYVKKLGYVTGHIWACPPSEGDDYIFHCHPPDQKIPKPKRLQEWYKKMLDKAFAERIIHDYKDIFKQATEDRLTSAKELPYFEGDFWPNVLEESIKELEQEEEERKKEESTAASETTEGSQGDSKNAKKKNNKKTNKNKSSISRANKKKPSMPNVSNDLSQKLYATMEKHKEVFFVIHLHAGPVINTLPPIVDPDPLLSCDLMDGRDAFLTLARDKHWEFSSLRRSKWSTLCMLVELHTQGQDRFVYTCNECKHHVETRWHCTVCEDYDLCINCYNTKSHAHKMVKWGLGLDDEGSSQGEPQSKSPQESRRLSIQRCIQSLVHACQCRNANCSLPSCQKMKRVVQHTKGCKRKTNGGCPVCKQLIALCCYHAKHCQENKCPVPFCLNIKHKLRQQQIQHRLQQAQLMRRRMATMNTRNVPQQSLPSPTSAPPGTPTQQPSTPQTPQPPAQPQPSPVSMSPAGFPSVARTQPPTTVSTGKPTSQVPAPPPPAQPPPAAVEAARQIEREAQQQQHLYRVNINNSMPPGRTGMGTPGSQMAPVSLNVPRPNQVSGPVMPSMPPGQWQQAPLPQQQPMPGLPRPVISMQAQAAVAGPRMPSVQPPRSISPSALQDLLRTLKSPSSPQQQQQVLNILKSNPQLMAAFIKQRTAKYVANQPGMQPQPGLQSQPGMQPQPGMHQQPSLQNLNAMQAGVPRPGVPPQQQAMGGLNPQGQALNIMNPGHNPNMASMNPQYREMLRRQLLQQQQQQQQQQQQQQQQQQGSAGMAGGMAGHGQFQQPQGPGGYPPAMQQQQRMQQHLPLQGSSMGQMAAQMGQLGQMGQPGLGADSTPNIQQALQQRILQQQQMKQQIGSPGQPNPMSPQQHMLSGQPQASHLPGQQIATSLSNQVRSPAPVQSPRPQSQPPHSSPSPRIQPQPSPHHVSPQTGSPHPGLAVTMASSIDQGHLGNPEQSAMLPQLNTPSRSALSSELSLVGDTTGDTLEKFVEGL

Molecular target: T1, HA-IRF3 (UniProt Q14653)
T1 sequence: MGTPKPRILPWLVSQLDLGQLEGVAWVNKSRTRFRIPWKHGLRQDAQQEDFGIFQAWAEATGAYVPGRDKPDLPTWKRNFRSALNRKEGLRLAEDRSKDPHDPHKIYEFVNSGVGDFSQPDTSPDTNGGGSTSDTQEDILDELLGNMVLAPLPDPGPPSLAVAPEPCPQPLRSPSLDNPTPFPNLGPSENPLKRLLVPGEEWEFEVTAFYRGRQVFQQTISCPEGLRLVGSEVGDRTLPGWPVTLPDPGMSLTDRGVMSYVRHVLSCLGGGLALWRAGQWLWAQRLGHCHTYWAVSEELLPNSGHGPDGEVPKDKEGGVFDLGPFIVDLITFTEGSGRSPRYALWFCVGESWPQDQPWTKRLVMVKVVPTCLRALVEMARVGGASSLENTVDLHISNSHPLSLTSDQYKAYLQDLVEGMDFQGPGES
Assay: co-IP; HEK-293T cells transfected with Flag-NOG1 and/or HA-IRF3, infected with SeV for 12 h; lysates immunoprecipitated with anti-HA antibody, Western blotting for endogenous CBP

CBP (CREB-binding protein), endogenous (from UniProt Q92793 1-2442)
binding: binds
